The supplement of paper PMC6078165
± gives the standard deviation of the averaged measurements. The reference is the same well before dosing, and untreated signal decays as well.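 Labels refer to human fibroblasts, largely primary: uterine (C12385, HUF), lung (H6013), bone (Hs27A), adrenal (HADF), skin (WS1), plus mammary HMF and breast cancer-associated Hs343T. Cancer lines are basal-like or mesenchymal-like triple-negative breast cancer. The paper counts as hits responses shifting over 3x the replicate standard deviation. The tissue of the other fibroblasts is not given here.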

Test system: MDAMB436
Assay: relative JC-1 red fluorescence (viability) vs pre-drug, coculture with fibroblast (fraction); higher = more viable cancer cells
Details: 1 µM
Procedure: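 JC-1 labelled TNBC cells cocultured 1:1 (1,500 cells each) with CellTrace Violet stained primary or stromal fibroblasts in 384-well plates in FluoroBrite medium, treated with one of 42 anticancer drugs at 0.1, 1, 10 or 100 uM. JC-1 red fluorescence (mitochondrial integrity in cancer cells only) was read by plate reader every 8 h for 72 h. Values are normalised to each well's pre-drug value. The stock of one drug was tenfold lower, so its dose labels may be too high.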

CC(C)C[C@H](NC(=O)[C@H](Cc1ccccc1)NC(=O)c1cnccn1)B(O)O [Bortezomib]
relative JC-1 red fluorescence
Details | 8 h | 16 h | 24 h | 32 h | 40 h | 48 h | 56 h | 64 h | 72 h
coculture fibroblast: C12385 | 0.811 ± 0.014 | 0.7253 ± 0.005 | 0.667 ± 0.011 | 0.587 ± 0.022 | 0.538 ± 0.032 | 0.51 ± 0.028 | 0.505 ± 0.033 | 0.5 ± 0.043 | 0.511 ± 0.05
coculture fibroblast: H6013 | 0.8575 ± 0.0041 | 0.813 ± 0.0085 | 0.794 ± 0.047 | 0.823 ± 0.067 | 0.845 ± 0.052 | 0.902 ± 0.045 | 0.919 ± 0.046 | 0.933 ± 0.046 | 0.918 ± 0.035
coculture fibroblast: H6019 | 0.7638 ± 0.0027 | 0.699 ± 0.02 | 0.732 ± 0.016 | 0.724 ± 0.025 | 0.726 ± 0.022 | 0.756 ± 0.016 | 0.779 ± 0.024 | 0.797 ± 0.022 | 0.8 ± 0.023
coculture fibroblast: H6076 | 0.829 ± 0.1 | 0.767 ± 0.17 | 0.824 ± 0.21 | 0.827 ± 0.23 | 0.7107 ± 0.0018 | 0.839 ± 0.11 | 0.8 ± 0.044 | 0.827 ± 0.064 | 0.846 ± 0.085
coculture fibroblast: H6231 | 0.799 ± 0.012 | 0.736 ± 0.033 | 0.722 ± 0.064 | 0.663 ± 0.074 | 0.663 ± 0.087 | 0.654 ± 0.095 | 0.657 ± 0.088 | 0.642 ± 0.083 | 0.638 ± 0.072
coculture fibroblast: HADF | 0.788 ± 0.024 | 0.724 ± 0.023 | 0.678 ± 0.035 | 0.648 ± 0.032 | 0.632 ± 0.02 | 0.641 ± 0.025 | 0.605 ± 0.014 | 0.604 ± 0.012 | 0.572 ± 0.0059
coculture fibroblast: HCFa | 0.827 ± 0.043 | 0.779 ± 0.08 | 0.777 ± 0.1 | 0.798 ± 0.12 | 0.828 ± 0.15 | 0.748 ± 0.02 | 0.847 ± 0.17 | 0.861 ± 0.16 | 0.799 ± 0.16
coculture fibroblast: HCPF | 0.8 ± 0.053 | 0.746 ± 0.054 | 0.733 ± 0.04 | 0.7 ± 0.032 | 0.701 ± 0.022 | 0.6827 ± 0.0055 | 0.683 ± 0.012 | 0.675 ± 0.021 | 0.664 ± 0.031
coculture fibroblast: HHSteC | 0.851 ± 0.015 | 0.787 ± 0.0054 | 0.7772 ± 0.0056 | 0.7481 ± 0.0055 | 0.733 ± 0.0084 | 0.744 ± 0.023 | 0.697 ± 0.026 | 0.686 ± 0.025 | 0.643 ± 0.028
coculture fibroblast: HMF | 0.781 ± 0.0082 | 0.6928 ± 0.0056 | 0.671 ± 0.011 | 0.644 ± 0.018 | 0.652 ± 0.026 | 0.631 ± 0.034 | 0.651 ± 0.043 | 0.648 ± 0.036 | 0.655 ± 0.028
coculture fibroblast: HPFa | 0.865 ± 0.025 | 0.785 ± 0.035 | 0.768 ± 0.068 | 0.752 ± 0.074 | 0.76 ± 0.078 | 0.805 ± 0.092 | 0.756 ± 0.083 | 0.761 ± 0.096 | 0.72 ± 0.099
coculture fibroblast: HUF | 0.8323 ± 0.0073 | 0.7252 ± 0.0033 | 0.691 ± 0.0094 | 0.62 ± 0.029 | 0.575 ± 0.042 | 0.544 ± 0.037 | 0.531 ± 0.032 | 0.521 ± 0.03 | 0.519 ± 0.037
coculture fibroblast: Hs5 | 0.809 ± 0.01 | 0.7385 ± 0.006 | 0.734 ± 0.026 | 0.688 ± 0.022 | 0.673 ± 0.023 | 0.634 ± 0.01 | 0.661 ± 0.011 | 0.6448 ± 0.005 | 0.6546 ± 0.0031
coculture fibroblast: Hs27A | 0.7982 ± 0.0073 | 0.7437 ± 0.007 | 0.715 ± 0.028 | 0.731 ± 0.024 | 0.719 ± 0.029 | 0.713 ± 0.038 | 0.684 ± 0.031 | 0.667 ± 0.039 | 0.602 ± 0.043
coculture fibroblast: Hs343T | 0.767 ± 0.0082 | 0.679 ± 0.007 | 0.668 ± 0.027 | 0.645 ± 0.023 | 0.641 ± 0.015 | 0.6314 ± 0.0049 | 0.637 ± 0.0081 | 0.643 ± 0.0066 | 0.654 ± 0.0082
coculture fibroblast: WS1 | 0.81 ± 0.013 | 0.698 ± 0.043 | 0.645 ± 0.025 | 0.569 ± 0.028 | 0.529 ± 0.053 | 0.506 ± 0.053 | 0.493 ± 0.058 | 0.484 ± 0.056 | 0.497 ± 0.051
